Measurements from patent US20260109761A1.
Numbering of substitutions follows the chain as printed. These are yes or no findings as the source states them, for the method shown. Some results given as binding are weak or reduced against the parent protein; the word gives no strength.

B1: H3_W99H_VL-par (antibody, V domains shown)
VH: QVQLVESGGGVVQPGRSLRLSCAASGFTFSDYGMHWVRQAPGKGLEWVAYISSGGTTIYYADTVKGRFTISRDNSKNTLYLQMNSLRAEDTAVYYCARHTNLYAMDYWGQGTTVTVSS
VL: DIVLTQSPDSLAVSLGERATINCRASKSVSTSGYSYMHWYQQKPGQPPKFLIYLASNLESGVPDRFSGSGSGTDFTLTISSLQAEDVAVYYCQHSREVPYTFGGGTKVEIKR
B2: H2_Y60K_L2 (antibody, V domains shown)
VH: B1 VH with Y60K, H99W
VL: B1 VL with L58K
B3: H3_M105P_L2 (antibody, V domains shown)
VH: B1 VH with H99W, M105P
VL: B1 VL with L58K
B4: H2_T63Y_VL-par (antibody, V domains shown)
VH: B1 VH with T63Y, H99W
VL: B1 VL

Tests used:
huZIP12-ECD-GST (human) [1] = target: huZIP12-ECD-GST (human) (UniProt Q504Y0); assay: HTRF competition: unlabelled antibody against Tb-labelled 51B12-parent on hZIP12-ECD-GST, detected with anti-GST-XL665
huZIP12-ECD-GST (human) [2] = target: huZIP12-ECD-GST (human) (UniProt Q504Y0); assay: HTRF competition with Tb-labelled 51B12-parent for hZIP12-ECD-GST, dose response

Row | Binder | binding (huZIP12-ECD-GST (human) [1]) | binding (huZIP12-ECD-GST (human) [2])
1 | B1 | binds | binds
2 | B2 | binds | binds
3 | B3 | binds | binds
4 | B4 | binds | binds
